# About 3,700 (0.93%) of roughly 400,000 compounds were called active. The inconclusive results got no clear call from the source; some entries with a clear call stand among them for comparison. The call rests on the fitted dose curve; in most records, active means well fitted inhibition curve with a large enough effect; inconclusive means small, poorly fitted or top-dose-only effect, or another doubt; inactive means no such curve, though single readings can be large or run the other way. Potencies beside an inconclusive call are fits to weak or partial responses and may not hold up. Where a SMILES comes first, the peptide text is derived from it.
# Sequences of proteins named here, by UniProt entry; tags and fusion partners are left off. A change or cut given only in a name is not applied to a line headed by its entry.
# UniProt P11473: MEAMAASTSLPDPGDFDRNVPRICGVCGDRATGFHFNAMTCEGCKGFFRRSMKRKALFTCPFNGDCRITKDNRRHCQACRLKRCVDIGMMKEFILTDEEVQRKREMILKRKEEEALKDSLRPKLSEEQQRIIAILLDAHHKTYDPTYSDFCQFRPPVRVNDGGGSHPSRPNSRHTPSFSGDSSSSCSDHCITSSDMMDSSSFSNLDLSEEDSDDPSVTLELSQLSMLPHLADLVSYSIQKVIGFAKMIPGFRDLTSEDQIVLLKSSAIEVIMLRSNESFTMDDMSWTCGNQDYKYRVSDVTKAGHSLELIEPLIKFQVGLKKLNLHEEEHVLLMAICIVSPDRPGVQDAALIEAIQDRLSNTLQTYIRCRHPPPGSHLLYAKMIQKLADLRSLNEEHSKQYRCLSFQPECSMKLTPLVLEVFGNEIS
# Target: Vitamin D3 receptor (Homo sapiens) (UniProt P11473)
# Test: Inhibitors of the vitamin D receptor (VDR): qHTS
# Settings: VDR-SRC2-3 peptide fluorescence polarization, 2 h; max response, negative = inhibition: active compounds read low
# Method in brief: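 Fluorescence polarization assay of small-molecule disruption of VDR binding to coregulator peptide SRC2-3. Compounds and controls pin-transferred, then read after 2 h incubation at ambient room temperature.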
# On the % scale 0 is the no-effect control and ±100 the full control effect; potency means the concentration at half of the fitted maximal effect.
SMILES,"max response, negative = inhibition",Potency
N[C@H](C(=O)O)C(O)C(O)C(O)CO (some centres not stated),inactive: -1.08%,
O=C(CC1C(=O)NCCN1CC(c1ccccc1)c1ccccc1)NC1CC1 (configuration not stated),inactive: -3.38%,
CCOC(=O)c1c(NC(=O)C2c3ccccc3Oc3ccccc32)sc(C(=O)N(CC)CC)c1C,,active: 70.8 µM
CN(C1CCCCC1)S(=O)(=O)c1ccc(C(=O)O)cc1,inactive: -3.61%,
O=C(NC1CCC(O)CC1)c1ccc(-c2ccc([N+](=O)[O-])cc2)o1 (configuration not stated),,"inconclusive: 79.4 µM [inhibitor, single point]"
CC(C)c1ccc(/C=C/C(=O)n2nnc3ccccc32)cc1,,"inconclusive: 14.1 µM [inhibitor, partial curve, poor fit]"
CCn1ccc(C(=O)Nc2ccc3c(c2)CCC3)n1,inactive: 7.18%,
COc1ccc(CCNc2ncnc3c2nnn3C)cc1,inactive: 8.54%,
COc1ccc(N2CCN(C3CCN(S(=O)(=O)c4ccc(F)cc4)CC3)CC2)cc1,,"inconclusive: 89.1 µM [inhibitor, single point]"
c1ccc(-c2nc(-c3ccco3)cs2)nc1,,"inconclusive: 79.4 µM [inhibitor, partial curve, poor fit]"
CCOC(=O)N1CCc2c(sc(N)c2C#N)C1,,"inconclusive: 6.31 µM [inhibitor, partial curve, poor fit]"
Cc1ccc(/C=c2\sc3nc(-c4cccs4)nn3c2=O)o1,,active: 35.5 µM
NC(=O)c1ccc(NC(=O)c2cncn2-c2ccccc2)cc1,,active: 79.4 µM
O=C(/C=C/c1ccco1)N(Cc1ccccc1)C1CCS(=O)(=O)C1 (configuration not stated),inactive: -5.21%,
Nc1ccc2c(c1)C(=O)C(=O)c1ccccc1-2,,active: 20 µM
COC(=O)c1ccc(-c2ccc(C(c3c(C)[nH][nH]c3=O)c3c(C)[nH][nH]c3=O)o2)cc1,,active: 35.5 µM
CCn1c(=O)c(=O)[nH]c2cc(C(=O)NC(C)c3ccc(S(N)(=O)=O)cc3)ccc21 (configuration not stated),,"inconclusive: 89.1 µM [inhibitor, single point]"
COc1ccc(/C=C2\C(=O)NC(=O)c3ccccc32)cc1OC,,"inconclusive: 79.4 µM [inhibitor, partial curve, poor fit]"
C=CC(=O)NC(C)(C)CCN1CCOCC1,,"inconclusive: 79.4 µM [inhibitor, single point]"
Cc1ccc(-c2nnc(OCc3nc4ccccc4n3C)c3ccccc23)cc1,,"inconclusive: 100 µM [inhibitor, single point]"
CC(C)c1ccc(N2C=Nc3ccc(C(C)C)cc3C2)cc1,,"inconclusive: 79.4 µM [inhibitor, partial curve]"
CCN1CCN(C(=S)c2ccc([N+](=O)[O-])cc2)CC1,,active: 70.8 µM
CCOc1ccc(Cn2c(CNS(=O)(=O)c3ccc(C(C)(C)C)cc3)nc3cccnc32)cc1,inactive: 3.65%,

# Ordered by heavy-atom count (low to high): some entries from above
SMILES,"max response, negative = inhibition",Potency
Nc1ccc2c(c1)C(=O)C(=O)c1ccccc1-2,,active: 20 µM
CCn1ccc(C(=O)Nc2ccc3c(c2)CCC3)n1,inactive: 7.18%,
CC(C)c1ccc(N2C=Nc3ccc(C(C)C)cc3C2)cc1,,"inconclusive: 79.4 µM [inhibitor, partial curve]"
Cc1ccc(-c2nnc(OCc3nc4ccccc4n3C)c3ccccc23)cc1,,"inconclusive: 100 µM [inhibitor, single point]"
COC(=O)c1ccc(-c2ccc(C(c3c(C)[nH][nH]c3=O)c3c(C)[nH][nH]c3=O)o2)cc1,,active: 35.5 µM
CCOc1ccc(Cn2c(CNS(=O)(=O)c3ccc(C(C)(C)C)cc3)nc3cccnc32)cc1,inactive: 3.65%,

# Further structures follow.

SMILES,"max response, negative = inhibition",Potency
S=C(Nc1ccc(-c2nc3ccccc3[nH]2)cc1)Nc1cccnc1,,"inconclusive: 79.4 µM [inhibitor, single point]"
Cn1c(/C(C#N)=C/c2cccc(O)c2)nc2ccccc21,,active: 79.4 µM
CCOC(=O)c1c(C)oc2ccc(N(C(C)=O)S(=O)(=O)c3c(C)cc(C)cc3C)cc12,inactive: -1.54%,
O=C(COc1ccc(Br)cc1)NCC1COc2ccccc2O1 (configuration not stated),,"inconclusive: 89.1 µM [inhibitor, single point]"
CC(C)N(c1ccccc1)c1ccc(NC(=O)COC(=O)CCN2C(=O)c3cccc([N+](=O)[O-])c3C2=O)cc1,,"inconclusive: 56.2 µM [inhibitor, partial curve, poor fit]"
O=C(NCc1ccco1)c1cnn2c1NC(c1ccc(Br)cc1)CC2C(F)(F)F (configuration not stated),,"inconclusive: 8.91 µM [inhibitor, partial curve, poor fit]"
O=C(O)C(Cc1ccccc1)N1C(=O)/C(=C/c2ccccc2)SC1=S (configuration not stated),,"inconclusive: 56.2 µM [inhibitor, partial curve, poor fit]"
O=C(NCCCn1ccnc1)/C(=C/c1ccc(Cl)cc1)NC(=O)c1ccccc1,inactive: 1.64%,
O=C(Nc1ccccc1C(=O)OCc1cc(=O)n2ccsc2n1)c1ccccc1Cl,inactive: 10.8%,
CNc1ccccc(C(=O)/C=C/c2ccccc2OC)c1=O,,"inconclusive: 89.1 µM [inhibitor, single point]"
C/C=C\C=C\C(=O)N1CC2(CC(c3cccc(NC(=O)COc4ccc(Cl)cc4)c3)=NO2)C[C@H]1C(N)=O (some centres not stated),,active: 89.1 µM
CC(C)C[C@@H](CN)NC(=O)c1nc[nH]c1C(=O)N[C@@H](C)C(=O)CNC[C@H](C)NC(=O)c1nc[nH]c1C(=O)N[C@@H](C)C(=O)O,,"inconclusive: 79.4 µM [inhibitor, single point]"
O=C(NCc1ccccc1)c1cc2ccc(O)cc2oc1=O,,"inconclusive: 56.2 µM [inhibitor, partial curve, poor fit]"
COC/C=C/C1=CC2=CC(=O)C(C)(OC(=O)c3ccco3)C(=O)C2=CO1 (configuration not stated),,"inconclusive: 70.8 µM [inhibitor, single point]"
CC(C)(C)C(=O)/C(C#N)=C/c1cccs1,inactive: -9.4%,
COc1cc(/C=C2/C(=O)NN(c3ccc(Cl)cc3)C2=O)cc(OC)c1O,,"inconclusive: 79.4 µM [inhibitor, partial curve]"
O=C(N/N=C/c1ccc(-c2cccc(C(F)(F)F)c2)o1)c1cccc(F)c1,inactive: 27.4%,
Cc1cc(Br)c(NC(=O)COC(=O)C2CCCCC2)c(Br)c1,inactive: 11.6%,
O=S(=O)(c1ccc(Cl)cc1)c1nc(-c2ccccc2F)oc1NCc1ccccc1,,"inconclusive: 79.4 µM [inhibitor, partial curve, poor fit]"
COCCNC(=O)CN1C(=O)CCn2nc(-c3cn(C)c4ccccc34)cc21,inactive: 1.17%,
CCOC(=O)N1CCN(CCC(=O)Nc2cccc(F)c2)CC1,,"inconclusive: 100 µM [inhibitor, single point]"
Cc1c(C(=O)NCc2ccc(Cl)cc2)sc2nc3n(c(=O)c12)CCC3,inactive: -5.7%,
CCc1cc(SC#N)cc(C)c1NC(=O)CCl,,active: 79.4 µM

SMILES,"max response, negative = inhibition",Potency
O=C(O)c1cccc(NC(=S)N/N=C/c2ccccc2OCc2ccc(Br)cc2)c1,,"inconclusive: 89.1 µM [inhibitor, single point]"
CO/C=C\C=C/c1nnn(-c2ccc(Cl)cc2)n1,,"inconclusive: 56.2 µM [inhibitor, partial curve, poor fit]"
Cc1nn(-c2nnc(NC3CCCCC3)nn2)c(C)c1Br,inactive: 2.12%,
COc1ccccc1Nc1ccc2c(O)cc(S(=O)(=O)O)cc2c1,,"inconclusive: 25.1 µM [inhibitor, full curve, poor fit]"
COc1cc(S(=O)(=O)Nc2ccccc2C)ccc1NC(=O)c1ccncc1,,"inconclusive: 89.1 µM [inhibitor, single point]"
CC(=O)NC(CC(C)C)C(=O)NC(CO)C(=O)NC(CCC(=O)O)C(=O)NC(C)C(=O)NC(CC(C)C)C(N)=O (configuration not stated) (Ac-LSEAL-NH2; configuration not given here),,"inconclusive: 89.1 µM [inhibitor, single point]"
Nc1c(C(=O)NCC2CCCO2)sc2nc3c(c(-c4ccco4)c12)CC/C3=C\c1ccco1 (configuration not stated),,"inconclusive: 89.1 µM [inhibitor, single point]"
CCOC(=O)/C(=C/c1c(C)n(C)c2ccc([N+](=O)[O-])cc12)C(C)=O,,"inconclusive: 56.2 µM [inhibitor, partial curve, poor fit]"
CN(C)CCn1c2c(c(SCC(=O)Nc3cccc4ccccc34)nc1=O)CCCC2,inactive: -13.2%,
O=C(O)COc1ccccc1C=NNc1ccc([N+](=O)[O-])cc1S(=O)(=O)Nc1ccc(Cl)cc1,,"inconclusive: 89.1 µM [inhibitor, partial curve, poor fit]"
CCCc1cc(Nc2ccccc2OCC)n2ncnc2n1,,"inconclusive: 3.55 µM [inhibitor, partial curve, poor fit]"
CC(C)(C)C(=O)Nc1ccc(/C=C/C(=O)c2ccco2)cc1,,"inconclusive: 50.1 µM [inhibitor, partial curve]"
Cc1cccc(N(CC(=O)Nc2ccc(Br)cc2)S(C)(=O)=O)c1C,inactive: 9.78%,
O=C(O)c1cc(-c2ccco2)nc2cc3ccccc3cc12,,"inconclusive: 89.1 µM [inhibitor, single point]"
CCc1ccc(NC(=O)CSc2nccn(-c3ccc4c(c3)OCCO4)c2=O)cc1,,"inconclusive: 100 µM [inhibitor, single point]"
OCCNC(=S)NCCc1ccccc1,inactive: -0.747%,
CCOc1ccc(N2C(=O)CC(SC(=NC)Nc3ccc(F)cc3)C2=O)cc1 (configuration not stated),inactive: 8.56%,
CCOC(=O)c1cc(-c2ccccc2)sc1NC(=O)c1ccc(OC)c(OC)c1,,active: 79.4 µM
Cc1ccc(Oc2nc3ccccn3c(=O)c2/C=C(\C#N)C(=O)Nc2c(C)n(C)n(-c3ccccc3)c2=O)cc1,,"inconclusive: 89.1 µM [inhibitor, single point]"
CCc1ccc(NC(=O)[C@H](C)NC(=O)C2CCN(C(=O)[C@@H](N)CC(C)C)CC2)cc1,,"inconclusive: 100 µM [inhibitor, partial curve, poor fit]"
COc1cc(/C=C2\SC(c3ccc(C)cc3)=NC2=O)ccc1O,,"inconclusive: 56.2 µM [inhibitor, partial curve]"

# Source: PubChem BioAssay AID504847 (National Center for Advancing Translational Sciences (NCATS), 2011)
